## Primary screen of a compound library

The chains behind the UniProt entries cited, without tags or fusion partners.
UniProt E9BF75, entry or part of it: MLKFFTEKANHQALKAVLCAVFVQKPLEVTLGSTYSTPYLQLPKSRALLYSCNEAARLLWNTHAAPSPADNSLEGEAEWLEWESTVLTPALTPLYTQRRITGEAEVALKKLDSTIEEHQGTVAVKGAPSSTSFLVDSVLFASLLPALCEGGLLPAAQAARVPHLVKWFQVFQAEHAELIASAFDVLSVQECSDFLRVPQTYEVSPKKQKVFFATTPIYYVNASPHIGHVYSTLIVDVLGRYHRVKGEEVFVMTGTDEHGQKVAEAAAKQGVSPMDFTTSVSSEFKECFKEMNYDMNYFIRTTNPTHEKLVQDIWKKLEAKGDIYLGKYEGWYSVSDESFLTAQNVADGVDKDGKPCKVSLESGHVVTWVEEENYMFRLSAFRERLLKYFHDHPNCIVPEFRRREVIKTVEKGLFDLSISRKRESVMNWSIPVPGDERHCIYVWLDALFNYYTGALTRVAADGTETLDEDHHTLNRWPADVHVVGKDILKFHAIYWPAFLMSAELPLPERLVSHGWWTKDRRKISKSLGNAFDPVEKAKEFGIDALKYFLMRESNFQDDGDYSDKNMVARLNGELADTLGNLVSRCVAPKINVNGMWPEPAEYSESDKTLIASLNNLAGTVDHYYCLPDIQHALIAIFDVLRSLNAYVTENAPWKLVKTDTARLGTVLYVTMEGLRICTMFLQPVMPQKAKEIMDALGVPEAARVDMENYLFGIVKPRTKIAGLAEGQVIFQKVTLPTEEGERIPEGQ

Data taken from ChEMBL document CHEMBL3988442, “University of Dundee, Small-Polar-MMV Screening Library” (2021).

Results are percentages, as filed.
The controls that fix the scale are not given in the record; negative values are as filed.
The compounds are a random part of those screened.

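Methionyl-tRNA synthetase (putative), Leishmania donovani (UniProt E9BF75). Primary screen of methionyl-tRNA synthetase; the read-out is not stated. The test concentration is not given. Values are per cent inhibition. Of about 68,000 compounds tested this way, about 24 (0.035%) reached 50% or more in at least one test.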

SMILES,inhibition
O=C(c1ccc(F)cc1Cl)N1CCn2c(nnc2C(F)(F)F)C1,2.989%
O=C(c1cc(C2CC2)[nH]n1)N1CCCC(n2cncn2)C1 (stereo unspecified),7.362%
COCCCOc1ccc(C(=O)N(Cc2cnn(C)c2)C(C)C)cn1,-1.289%
O=C1NC2(CCN(Cc3cccnc3)CC2)CC1c1ccncc1 (stereo unspecified),12.45%
CC(=O)NCCNCC1(O)CCCN(CCC2CCCCC2)C1=O (stereo unspecified),10.03%
Cc1ccc(-c2nc(CNCC3CN(C)CCO3)co2)cc1 (stereo unspecified),20.56%
Cc1ccsc1CN1CCCC(CNC(=O)c2ccc(N)nc2)C1 (stereo unspecified),21.56%
CC(C)CCC(=O)N1CCCC1c1nnc2n1CCCCC2 (stereo unspecified),12.81%
CCN(Cc1ccccn1)Cc1cc(Cl)ccc1OC,3.064%
Cc1ccc(NC(=O)N2CCCN(C(N)=O)CC2)s1,-0.8357%
Cn1ccnc1SCC(=O)NCCC1CCCO1 (stereo unspecified),15.85%
Cc1ccc(F)c(C(=O)NC2CCC(N3C(=O)CCC3=O)CC2)c1 (stereo unspecified),0.9926%
CC(C)CNC(=O)N1CC[C@@H]2CN(Cc3cccnc3)S(=O)(=O)[C@@H]2CC1,3.101%
O=C(c1cc(F)ccc1F)C1CCN(C(=O)c2ccco2)CC1,16.57%
CC(=O)N1CCCCC1c1nc(N)ncc1-c1ccccc1 (stereo unspecified),10.8%
Cc1csc(N2CCN(C(=O)CCC(=O)c3ccc(C)s3)CC2)n1,15.69%
Oc1ccc(Cl)cc1CNCc1ccccc1C(F)(F)F,7.914%
Cc1ccc(CN2CCC(n3cc(C(O)c4ccccc4)nn3)CC2)o1 (stereo unspecified),9.137%
CNC(=O)[C@H]1C[C@H]2OCC[C@H]2N(Cc2cccc3ccccc23)C1,17.65%
COC1CCN(C(=O)c2csc(-c3ccccc3F)n2)CC1,1.928%
Cc1cccc(CN2CC[C@@H]3[C@@H]2CCN3C(=O)c2ccno2)n1,1.905%
COc1ccc(C(C)NCCc2ccc(NC(C)=O)cc2)cc1F (stereo unspecified),12.06%
COCCNC(=O)N1CCC(NC(C)C)CC1,4.735%
c1cc2c(cc1C1CCCN1Cc1nnnn1C1CC1)OCCO2 (stereo unspecified),11.5%
COc1cc(C2SCC(=O)Nc3n[nH]cc32)cc(OC)c1O (stereo unspecified),14.73%
COCCN1C(=O)[C@]2(CC[C@@H]3CN(C(=O)NCC(C)C)C[C@@H]32)N=C1C,7.113%
COCCNC(=O)c1cc2c(s1)CCN2S(C)(=O)=O,12.33%
COc1cc(CNCc2ccc(NC(=O)NC(C)C)cc2)cc(OC)c1,17.07%
CC(C)C1SCC(=O)Nc2c1cnn2-c1ccc(Cl)cc1 (stereo unspecified),17.54%
Cc1ccc(-c2nc(CN3CC(n4nc(C)cc4C)C3)no2)cc1,16.62%
COc1cc(CNCC(O)c2ccc(F)c(F)c2)cc2c1OCO2 (stereo unspecified),14.29%
Cc1cc(-c2cnn(CCNC(=O)C3CC3)c2C2CC2)on1,1.049%
Cc1cccc(CN2CCC(c3nnsc3S(C)(=O)=O)CC2)c1,19.77%
NC(=O)C1CCN(S(=O)(=O)c2cnn(-c3ccccc3)c2)C1 (stereo unspecified),12.33%
CN(C)c1nc(NCCCN2CCc3ccccc32)ncc1F,7.368%
CC(O)CN1CCN(C(=O)c2cccn2Cc2ccccc2)CC1 (stereo unspecified),13.86%
CC(Oc1ccc2c(c1)OCO2)C(=O)N1CCC(N2CCCC2)CC1 (stereo unspecified),17.34%
CC(C)c1nn(C)c(N2CCOCC2)c1CNCc1nncn1C,16.86%
Cc1noc([C@@]23CCO[C@@H]2CCN(C(=O)CCC(C)C)C3)n1,6.84%
O=C(CSCCN1CCOCC1)N1CCc2ccccc2C1,15.89%
Cc1cnn(CCNCc2csc(-c3ncccn3)n2)c1,15.3%
CC(C)Cc1noc(CNc2cc3c(cc2Cl)OCCCO3)n1,-12.42%
Cc1nn(C)c(N(C)C)c1CNCc1cnn(Cc2ccccc2)c1,9.964%
O=C(C[C@H]1[C@H]2CN(C(=O)CO)C[C@@H]12)Nc1cccnc1,8.759%
CCN(Cc1noc(CC(C)C)n1)Cc1cccc(F)c1O,0.2564%
CN(C)C(=O)c1nc(CN2C(=O)OC[C@@H]2c2ccccc2)no1,9.192%
Cc1nn(C)cc1S(=O)(=O)NCC(c1ccccc1)N1CCCCCC1 (stereo unspecified),-0.6231%
CS(=O)(=O)N1CCN(C(=O)CCC2CCCO2)CC1 (stereo unspecified),16.76%
Cc1cc(C)n(CCCN(C)C(=O)C2COc3ccccc3C2)n1 (stereo unspecified),2.994%
Cn1ccnc1CN1CCOC(Cc2ccccc2)C1 (stereo unspecified),16.49%
CC(C)N1CCC(NCc2cccnc2N(C)Cc2ccccc2)CC1,12.68%
Cc1ccc(Oc2ncccc2CNC2Cc3ccccc3C2)cn1,7.117%
O=C(COCC1CC1)Nc1ncccc1I,8.06%
CC1(C)CN(Cc2ccncc2)CCS1(=O)=O,11.43%
COc1ccc(C2CCCN2Cc2nc3c(cnn3C)c(=O)[nH]2)cc1 (stereo unspecified),10.06%
CN(Cc1cnn(C)c1)C(=O)CN1CCCC(Cn2cncn2)C1 (stereo unspecified),6.25%
CC(SCCC(=O)NC(N)=O)c1ccc(F)cc1F (stereo unspecified),10.47%
O=C(NC[C@H]1CCCO1)c1ccc(S(=O)(=O)N2C[C@@H]3C[C@H]2CN3)cc1,8.906%
COc1ccc(Cl)cc1S(=O)(=O)N(C)CC(=O)Nc1cccnc1,11.67%
CC(=O)N1CCCN(C(=O)Cc2c(C)nc(C)[nH]c2=O)CC1,4.62%
CC(C)CC(=O)N1CCN(c2cc(N(C)C)cnn2)CC1,7.194%
CCCC(=O)N1CCC(c2ncc3c(n2)CCNC3)CC1,15.53%
O=C(c1ccnnc1)N1C[C@H]2CCC[C@@]2(COCC2CCOCC2)C1,8.418%
O=C(NC1CCCC1)c1nc2c(o1)CN(C(=O)CCO)C2,-4.762%
O=C(NCCNS(=O)(=O)C1CCCCC1)c1ccccc1,21.51%
Cn1cc(NC(=O)CNC(=O)N2CCN(c3ccc(F)cc3)CC2)cn1,17.16%
CC(=O)N1CCCN(Cc2nnc(C(C)(C)C)o2)CC1,5.435%
CC(NC(=O)CCCc1nc(C(C)(C)C)no1)c1ccccn1 (stereo unspecified),9.836%
CCCc1nnc(NC(=O)NC(C)Cn2cccn2)s1 (stereo unspecified),23.86%
CN1C(=O)C2(CCN(S(=O)(=O)C3CC3)CC2)c2ccccc21,14.86%
CN(C)C(=O)COCC1CN(Cc2cccs2)Cc2ncn(C)c21 (stereo unspecified),3.046%
O=C(c1cnc(NCC2CCCO2)c(Cl)c1)N1CCOCC1 (stereo unspecified),7.692%
O=S(=O)(c1ccc(F)cc1)N1CCCC(c2nccs2)C1 (stereo unspecified),7.074%
Cc1cc(C)n(C2CCCN(C(=O)c3cccc4[nH]ncc34)C2)n1 (stereo unspecified),15.24%
COCCn1c2c(ccc1=O)CC(N)CC2 (stereo unspecified),15.56%
O=c1ccc2c(n1Cc1ccncc1)CCN(C1CCOC1)CC2 (stereo unspecified),-4.261%
CCOCC1CN(C(=O)c2cccs2)Cc2nn(C)cc21 (stereo unspecified),11.11%
Cc1n[nH]c(C)c1-c1nccnc1CC1CCN(S(C)(=O)=O)C1 (stereo unspecified),8.333%
CCC(O)Cn1cc(C2=CCN(Cc3cc(O)nc(C)n3)CC2)cn1 (stereo unspecified),-1.882%
CCNc1nnc(SC(C(=O)NCc2cccnc2)C(C)C)s1 (stereo unspecified),14.21%
O=C(Nc1cccnc1)[C@H]1C[C@@H]2CCN(c3nncs3)C[C@H]2O1,19.05%
COc1ncccc1C(=O)N1CC(c2nc(-c3ccccn3)no2)C1,4.969%
Fc1cccc(CN2C[C@@H]3CN(c4ncccn4)C[C@@H]3C2)c1,9.351%
Cn1cc(Cl)c(C(=O)N2CCCN(C3Cc4ccccc4C3)CC2)n1,-0.6969%
C[C@@H]1C[C@H]2CN(C(=O)c3cccc4c3OCCO4)C[C@H]2O1,14.49%
CNC(=O)[C@@]12CCCN(c3ncccn3)[C@@H]1CN(c1ncc(C)cn1)C2,9.929%
Cc1nc(C)c(Cn2ccnc2-c2cc(CN(C)C)cs2)s1,1.25%
Cn1ccnc1CNC(=O)N(CCCO)C1CCCc2ccccc21 (stereo unspecified),8.451%
COCC(Nc1ncnc2sc(C(=O)O)c(C)c12)c1ccnn1C (stereo unspecified),8.935%
O=C(C1CCCc2[nH]ncc21)N1CCCCCC1 (stereo unspecified),8.55%
CC(C)NC(=O)C1(Cc2ccccc2-c2cccs2)CCNC1 (stereo unspecified),18.01%
Cc1noc(CS(=O)(=O)C(C)C(=O)N(C)c2ccccc2)n1 (stereo unspecified),16.77%
Cc1cnn(CC2CCCN2Cc2nc3ccccc3n2C)c1 (stereo unspecified),3.286%
CCC(C)n1cnc(S(=O)(=O)N(C)C)c1 (stereo unspecified),13.75%

For reference, 10 entries once more:

SMILES,inhibition
Fc1cccc(CN2C[C@@H]3CN(c4ncccn4)C[C@@H]3C2)c1,9.351%
CN(Cc1cnn(C)c1)C(=O)CN1CCCC(Cn2cncn2)C1 (stereo unspecified),6.25%
Cc1cccc(CN2CC[C@@H]3[C@@H]2CCN3C(=O)c2ccno2)n1,1.905%
NC(=O)C1CCN(S(=O)(=O)c2cnn(-c3ccccc3)c2)C1 (stereo unspecified),12.33%
Cc1cc(C)n(C2CCCN(C(=O)c3cccc4[nH]ncc34)C2)n1 (stereo unspecified),15.24%
Cc1noc(CS(=O)(=O)C(C)C(=O)N(C)c2ccccc2)n1 (stereo unspecified),16.77%
CCN(Cc1noc(CC(C)C)n1)Cc1cccc(F)c1O,0.2564%
Cc1ccc(-c2nc(CN3CC(n4nc(C)cc4C)C3)no2)cc1,16.62%
COCCNC(=O)c1cc2c(s1)CCN2S(C)(=O)=O,12.33%
CC(SCCC(=O)NC(N)=O)c1ccc(F)cc1F (stereo unspecified),10.47%